{
  "sequences": {"note": "Chains of the proteins cited; added tags and fusions are not shown.", "UniProt Q8R4B8, whole entry": "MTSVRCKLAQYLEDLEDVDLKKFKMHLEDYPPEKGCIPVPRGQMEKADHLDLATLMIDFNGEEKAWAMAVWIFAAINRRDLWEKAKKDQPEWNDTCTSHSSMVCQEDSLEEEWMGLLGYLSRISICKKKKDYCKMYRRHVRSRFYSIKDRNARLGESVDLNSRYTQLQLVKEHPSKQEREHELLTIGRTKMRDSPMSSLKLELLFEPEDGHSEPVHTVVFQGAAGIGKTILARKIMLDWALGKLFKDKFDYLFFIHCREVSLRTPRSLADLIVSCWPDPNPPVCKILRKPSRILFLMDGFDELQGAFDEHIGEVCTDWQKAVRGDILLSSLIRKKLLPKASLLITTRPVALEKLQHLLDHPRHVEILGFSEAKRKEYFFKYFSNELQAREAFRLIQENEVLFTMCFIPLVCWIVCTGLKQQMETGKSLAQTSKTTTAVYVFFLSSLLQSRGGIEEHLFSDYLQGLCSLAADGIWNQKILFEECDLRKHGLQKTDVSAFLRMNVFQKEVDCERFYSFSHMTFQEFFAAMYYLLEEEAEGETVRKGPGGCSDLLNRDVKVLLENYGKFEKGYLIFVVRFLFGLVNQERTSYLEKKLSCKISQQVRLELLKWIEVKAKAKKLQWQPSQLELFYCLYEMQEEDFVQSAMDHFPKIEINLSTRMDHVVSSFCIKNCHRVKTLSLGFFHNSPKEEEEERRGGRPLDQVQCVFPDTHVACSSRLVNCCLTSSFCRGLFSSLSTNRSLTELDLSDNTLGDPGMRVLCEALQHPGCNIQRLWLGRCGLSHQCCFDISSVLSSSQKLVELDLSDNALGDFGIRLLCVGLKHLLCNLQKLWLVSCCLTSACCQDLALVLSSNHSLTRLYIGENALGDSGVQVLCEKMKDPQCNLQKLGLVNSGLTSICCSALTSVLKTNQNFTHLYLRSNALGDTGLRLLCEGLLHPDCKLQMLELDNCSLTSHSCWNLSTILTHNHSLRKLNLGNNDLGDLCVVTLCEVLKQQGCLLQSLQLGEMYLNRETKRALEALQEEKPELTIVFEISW"},
  "source": "patent US20180008629A1",
  "about": "“Compositions and Methods for Treating NLRP3 Inflammasome-Related Diseases and Disorders” (priority 2015, published 2018)",
  "target": "NLRP3 inflammasome (Mus musculus, UniProt Q8R4B8)",
  "experiment": "NLRP3 inflammasome activation in LPS primed BMDMs (caspase-1 / IL-1β immunoblot)",
  "assay_type": "cell-based",
  "set-up": "endogenous in cells; host or cells: mouse bone marrow derived macrophages (A1)",
  "note": "At least one structure is not confirmed: it was looked up by name or label, or the drawing left a doubt.",
  "data": [
    {"molecule": "CCCC(=O)O", "note": "[butyrate, reference compound]", "values": [
      {"measurement": "ATP-induced NLRP3 activation", "setting": "BMDMs stimulated with LPS and ATP, 10 mM, caspase-1 immunoblot (FIG. 1B)", "result": "did not affect"},
      {"measurement": "monosodium urate (MSU) crystals induced caspase-1 activation", "setting": "LPS primed BMDMs, MSU", "result": "but not"},
      {"measurement": "effect on the NLRP3 inflammasome", "setting": "control and Gpr109a deficient BMDMs, LPS and ATP, 10 mM", "result": "neither butyrate nor acetoacetate affect"}
    ]}
  ]
}
